These are yes or no findings as the source states them, for the method shown. In cells and extracts the contact can be indirect. Some entries that bind do so weakly or less than the wild type.
Tests used:
[1] = target: T1, VCPIP1 wild type, as used in the domain-mapping Co-IP (Fig. 5G, H) (UniProt Q96JH7); assay: co-IP; wild-type and truncated VCPIP1 and YAP constructs expressed in cells (cell line and precipitating antibody not stated); western blot
T1 sequence: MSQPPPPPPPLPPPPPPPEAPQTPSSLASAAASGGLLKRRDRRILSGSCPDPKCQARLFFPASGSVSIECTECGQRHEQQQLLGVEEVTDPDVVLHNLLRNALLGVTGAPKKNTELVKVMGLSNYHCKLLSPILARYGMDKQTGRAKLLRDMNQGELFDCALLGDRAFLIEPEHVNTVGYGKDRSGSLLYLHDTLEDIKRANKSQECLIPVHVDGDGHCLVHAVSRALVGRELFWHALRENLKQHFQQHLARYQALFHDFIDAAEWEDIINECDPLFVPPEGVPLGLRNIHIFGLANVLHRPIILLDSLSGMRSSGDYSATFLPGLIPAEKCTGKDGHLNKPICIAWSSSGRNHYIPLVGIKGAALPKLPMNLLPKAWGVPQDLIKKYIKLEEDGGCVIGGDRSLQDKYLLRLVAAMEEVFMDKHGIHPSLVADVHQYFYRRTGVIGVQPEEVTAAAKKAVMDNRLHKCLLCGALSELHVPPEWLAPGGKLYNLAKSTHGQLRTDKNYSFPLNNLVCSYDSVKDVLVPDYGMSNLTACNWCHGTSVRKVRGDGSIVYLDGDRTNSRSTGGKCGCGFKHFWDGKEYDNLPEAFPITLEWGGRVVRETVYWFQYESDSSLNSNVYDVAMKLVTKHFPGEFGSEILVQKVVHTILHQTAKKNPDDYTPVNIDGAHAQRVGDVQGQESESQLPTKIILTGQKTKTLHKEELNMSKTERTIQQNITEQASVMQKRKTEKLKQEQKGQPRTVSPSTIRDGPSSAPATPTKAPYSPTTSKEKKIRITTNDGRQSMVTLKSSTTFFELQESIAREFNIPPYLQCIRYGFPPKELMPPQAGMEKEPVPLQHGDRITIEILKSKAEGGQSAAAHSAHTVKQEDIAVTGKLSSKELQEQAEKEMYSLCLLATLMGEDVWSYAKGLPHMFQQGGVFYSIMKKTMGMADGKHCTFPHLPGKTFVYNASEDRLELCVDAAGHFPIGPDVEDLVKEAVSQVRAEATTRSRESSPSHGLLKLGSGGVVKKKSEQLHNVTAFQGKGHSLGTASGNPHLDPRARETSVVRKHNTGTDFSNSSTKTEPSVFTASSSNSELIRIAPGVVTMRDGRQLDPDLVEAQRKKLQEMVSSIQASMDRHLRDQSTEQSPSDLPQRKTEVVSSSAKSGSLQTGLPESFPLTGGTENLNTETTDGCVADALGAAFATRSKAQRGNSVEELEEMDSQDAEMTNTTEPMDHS

Protein sequences, listed by entry. Tags and fused reporters are not part of them.
UniProt P46937: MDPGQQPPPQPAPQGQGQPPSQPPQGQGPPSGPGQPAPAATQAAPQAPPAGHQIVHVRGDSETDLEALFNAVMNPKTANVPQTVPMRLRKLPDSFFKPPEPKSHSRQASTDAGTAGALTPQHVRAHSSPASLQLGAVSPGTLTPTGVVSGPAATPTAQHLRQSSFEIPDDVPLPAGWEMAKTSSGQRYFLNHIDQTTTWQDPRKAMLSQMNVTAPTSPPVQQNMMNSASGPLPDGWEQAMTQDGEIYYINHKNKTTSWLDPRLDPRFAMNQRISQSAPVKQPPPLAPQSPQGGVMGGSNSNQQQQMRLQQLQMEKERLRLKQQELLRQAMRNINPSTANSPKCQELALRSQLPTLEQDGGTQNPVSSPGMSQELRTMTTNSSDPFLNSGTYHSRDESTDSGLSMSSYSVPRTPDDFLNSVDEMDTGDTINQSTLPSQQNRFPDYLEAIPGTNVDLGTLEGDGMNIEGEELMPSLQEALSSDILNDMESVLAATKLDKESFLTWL

[2] = target: T2, VCPIP1 (valosin-containing protein-interacting protein 1), endogenous in PANC-1 cells (human (endogenous in PANC-1)) (UniProt Q96JH7); assay: co-IP; endogenous proteins in PANC-1 lysate; immunoprecipitation with anti-VCPIP1 or anti-YAP antibody or IgG and protein A/G at 4 °C overnight, five washes with lysis buffer, western blot
T2 sequence: T1 sequence

Substance	binding [1]	binding [2]
YAP wild type, as used in the domain-mapping Co-IP (Fig. 5G, H) (from UniProt P46937 1-504)	binds	
YAP, endogenous in PANC-1 cells (from UniProt P46937 1-504)		binds
